Source: patent EP2604624A1, “Bowman-Birk protease Inhibitor (BBI) binding peptides, and uses thereof in the separation, detection or purification of BBI” (University College Dublin National University Of Ireland, …, priority 2011, dated 2013)
Results are given in words; binding and its absence hold for the method and conditions named. Some binding calls cover weakened binding; strength is not graded here.

What was measured:
[1] = target: T1, soybean Bowman-Birk Inhibitor (BBI), purified (soybean) (UniProt P01055); experiment: phage ELISA, BBI immobilised, anti-M13 HRP detection
T1 sequence (looked up): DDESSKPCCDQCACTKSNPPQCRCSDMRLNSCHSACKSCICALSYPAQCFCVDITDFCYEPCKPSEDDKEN

[2] = target: T1, soybean Bowman-Birk Inhibitor (BBI), purified (soybean); experiment: solid-phase assay, BBI immobilised, streptavidin-HRP detection
[3] = target: T1, soybean Bowman-Birk Inhibitor (BBI), purified (soybean); experiment: SPR (Biacore T100), BBI immobilised on CM5 chip

Binder: GAMHLPWHMGTLGGGS (peptide, not shown: large carriers) [phage clone displaying the 12-mer peptide of SEQ ID NO: 1]
- binding [1]: binds

Binder: ANYFLPPVLSSSGGGS (peptide, not shown: large carriers) [phage clone displaying the 12-mer peptide of SEQ ID NO: 3]
- binding [1]: binds

Binder: KFLGPLNHRDRHGGGS (peptide, not shown: large carriers) [phage clone displaying the 12-mer peptide of SEQ ID NO: 2]
- binding [1]: binds

Binder: GAMHLPWHMGTLGGGS (C-terminal 1,2-diaminoethane-biotin) [BBI-1: …-1,2-diaminoethane-biotin]
- binding [2]: binds

B1: anti-BBI single chain antibody fragment (scFv) comprising SEQ ID 14 and 15 (scFv, V domains shown)
VH: EVQLQQSGAELVKPGASVKLSCTGSGFNIKDNNIHWLRQRPEQGLEWIGKIDPANGDTEYGPKLQGKATITSDTSSNTAYLQLNSLTSEDTAVYYCATDLYSKPVWFAYWGQGTLVTVSA
VL: DVLMSQAPLSLPVSLGDQASISCRSSQNIVHSNGNTYLEWYLQKPGQSPKLLIYKVSNRFSGVPDRFSGRGSGTDFTLKISRVEAEDLGVYYCFQGSHVPWTFGGGTKLEIK
- binding [3]: binds

B2: anti-BBI single chain Diabody (scDb) comprising SEQ ID 14 and 15 (protein)
VH: EVQLQQSGAELVKPGASVKLSCTGSGFNIKDNNIHWLRQRPEQGLEWIGKIDPANGDTEYGPKLQGKATITSDTSSNTAYLQLNSLTSEDTAVYYCATDLYSKPVWFAYWGQGTLVTVSA
VL: DVLMSQAPLSLPVSLGDQASISCRSSQNIVHSNGNTYLEWYLQKPGQSPKLLIYKVSNRFSGVPDRFSGRGSGTDFTLKISRVEAEDLGVYYCFQGSHVPWTFGGGTKLEIK
- binding [3]: binds
